For 6 molecules, binding results are on record in article PMC5429825.

Protein sequences, listed by entry. Tags and fused reporters are not part of them.
UniProt O00429: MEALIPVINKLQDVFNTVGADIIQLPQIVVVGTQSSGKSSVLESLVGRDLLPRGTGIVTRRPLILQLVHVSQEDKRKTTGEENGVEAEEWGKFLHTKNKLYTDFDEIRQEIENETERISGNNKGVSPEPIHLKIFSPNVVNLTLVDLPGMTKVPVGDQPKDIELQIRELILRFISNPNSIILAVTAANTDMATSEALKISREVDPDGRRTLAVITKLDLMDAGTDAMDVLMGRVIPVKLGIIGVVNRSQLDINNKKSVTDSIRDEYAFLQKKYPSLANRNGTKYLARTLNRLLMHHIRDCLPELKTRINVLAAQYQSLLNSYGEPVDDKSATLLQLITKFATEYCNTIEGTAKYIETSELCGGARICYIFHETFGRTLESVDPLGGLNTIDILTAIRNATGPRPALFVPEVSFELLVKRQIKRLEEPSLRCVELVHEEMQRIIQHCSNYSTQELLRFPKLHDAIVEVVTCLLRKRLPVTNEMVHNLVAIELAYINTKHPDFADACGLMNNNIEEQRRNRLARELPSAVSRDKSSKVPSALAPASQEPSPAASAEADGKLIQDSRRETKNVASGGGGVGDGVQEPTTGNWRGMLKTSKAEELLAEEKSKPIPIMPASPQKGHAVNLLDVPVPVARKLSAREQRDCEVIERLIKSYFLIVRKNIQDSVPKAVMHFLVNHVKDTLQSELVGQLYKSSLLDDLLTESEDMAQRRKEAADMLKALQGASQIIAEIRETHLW

For assay [1], the target named is T1, Mff, endogenous (human (endogenous in 293T)) (UniProt Q9GZY8).
T1 sequence: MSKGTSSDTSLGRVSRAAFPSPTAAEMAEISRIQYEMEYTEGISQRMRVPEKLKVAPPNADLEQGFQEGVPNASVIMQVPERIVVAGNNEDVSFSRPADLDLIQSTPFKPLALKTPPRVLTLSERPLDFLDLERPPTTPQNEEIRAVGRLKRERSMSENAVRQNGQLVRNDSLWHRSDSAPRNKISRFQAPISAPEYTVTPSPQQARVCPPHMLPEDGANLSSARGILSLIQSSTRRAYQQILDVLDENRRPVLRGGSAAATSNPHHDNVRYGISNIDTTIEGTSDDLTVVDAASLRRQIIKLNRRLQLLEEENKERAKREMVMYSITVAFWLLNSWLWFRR
Kind of assay: co-IP; endogenous levels; 293T lysates, goat anti-Mff antibody (goat normal IgG as negative control), immunoblot; also after MIEF1/2 siRNA or in MIEF1/2 DKO cells (Mff-Drp1 severely reduced) and after Drp1 siRNA (MIEF-Mff not disrupted).

For assay [2], the target named is MIEF1-V5 (UniProt Q9NQG6). The assay can be described thus: co-IP; 293T transfected with V5-tagged MIEF1 or MIEF2 (wild type or deletion mutants), alone or with Mff plasmid; also after Mff siRNA or Drp1 siRNA; lysates, anti-V5 beads, immunoblot.
Assay [3] concerns the target T2, MIEF2-V5 (UniProt Q96C03).
T2 sequence: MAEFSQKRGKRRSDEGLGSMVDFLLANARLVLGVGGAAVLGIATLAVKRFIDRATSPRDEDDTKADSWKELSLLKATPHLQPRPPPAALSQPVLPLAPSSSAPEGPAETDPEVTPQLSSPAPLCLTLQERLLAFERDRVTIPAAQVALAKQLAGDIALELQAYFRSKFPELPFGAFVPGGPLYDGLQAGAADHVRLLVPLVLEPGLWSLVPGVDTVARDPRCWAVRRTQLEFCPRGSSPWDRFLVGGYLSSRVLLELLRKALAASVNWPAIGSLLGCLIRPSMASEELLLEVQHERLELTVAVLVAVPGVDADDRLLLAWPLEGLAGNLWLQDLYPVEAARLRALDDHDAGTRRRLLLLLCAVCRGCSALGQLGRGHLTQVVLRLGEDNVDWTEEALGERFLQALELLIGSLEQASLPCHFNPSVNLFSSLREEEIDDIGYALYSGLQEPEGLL
The description is as above.

Assay [4] concerns the target T3, MIEF1^Δ1–48 (UniProt Q9NQG6).
T3 sequence: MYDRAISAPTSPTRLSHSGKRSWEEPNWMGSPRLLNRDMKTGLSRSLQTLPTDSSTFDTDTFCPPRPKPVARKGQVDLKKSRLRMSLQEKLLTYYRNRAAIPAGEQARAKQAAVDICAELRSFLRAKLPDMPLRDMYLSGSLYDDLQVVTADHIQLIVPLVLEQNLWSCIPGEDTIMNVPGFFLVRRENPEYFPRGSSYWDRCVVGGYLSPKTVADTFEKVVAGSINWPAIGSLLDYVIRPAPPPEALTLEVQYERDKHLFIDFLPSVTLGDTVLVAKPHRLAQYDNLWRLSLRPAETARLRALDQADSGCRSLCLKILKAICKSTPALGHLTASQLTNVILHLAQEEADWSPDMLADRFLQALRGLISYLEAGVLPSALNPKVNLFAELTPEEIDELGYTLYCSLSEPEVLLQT
The assay is described as above.

The target in assay [5] is T4, MIEF2^Δ1–49 (UniProt Q96C03).
T4 sequence: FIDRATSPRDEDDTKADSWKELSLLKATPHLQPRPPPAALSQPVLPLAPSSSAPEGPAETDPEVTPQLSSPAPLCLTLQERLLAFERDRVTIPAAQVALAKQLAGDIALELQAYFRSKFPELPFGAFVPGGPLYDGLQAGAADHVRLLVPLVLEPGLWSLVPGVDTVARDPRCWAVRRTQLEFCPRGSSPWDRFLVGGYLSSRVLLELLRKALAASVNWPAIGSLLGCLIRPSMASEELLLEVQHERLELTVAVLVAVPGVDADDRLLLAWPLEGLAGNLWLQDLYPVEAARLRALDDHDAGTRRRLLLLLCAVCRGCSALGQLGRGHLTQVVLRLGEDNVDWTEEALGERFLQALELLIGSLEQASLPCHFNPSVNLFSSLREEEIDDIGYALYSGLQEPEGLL
Described as above.

For assay [6], the target named is T5, MIEF2^Δ151–160 (UniProt Q96C03).
T5 sequence: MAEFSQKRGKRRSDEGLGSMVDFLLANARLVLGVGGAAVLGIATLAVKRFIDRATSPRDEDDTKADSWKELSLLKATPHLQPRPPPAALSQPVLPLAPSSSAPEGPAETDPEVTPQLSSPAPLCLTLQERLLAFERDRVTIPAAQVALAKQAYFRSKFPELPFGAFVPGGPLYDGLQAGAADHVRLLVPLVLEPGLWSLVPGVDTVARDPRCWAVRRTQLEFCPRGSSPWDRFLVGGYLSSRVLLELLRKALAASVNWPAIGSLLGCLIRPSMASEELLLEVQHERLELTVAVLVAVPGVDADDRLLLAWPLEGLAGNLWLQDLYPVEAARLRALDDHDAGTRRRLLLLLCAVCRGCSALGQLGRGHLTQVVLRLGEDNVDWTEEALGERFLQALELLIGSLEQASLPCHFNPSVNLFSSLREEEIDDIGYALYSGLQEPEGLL
The assay is described as above.

For assay [7], the target named is T6, MIEF1^Δ160–169 (UniProt Q9NQG6).
T6 sequence: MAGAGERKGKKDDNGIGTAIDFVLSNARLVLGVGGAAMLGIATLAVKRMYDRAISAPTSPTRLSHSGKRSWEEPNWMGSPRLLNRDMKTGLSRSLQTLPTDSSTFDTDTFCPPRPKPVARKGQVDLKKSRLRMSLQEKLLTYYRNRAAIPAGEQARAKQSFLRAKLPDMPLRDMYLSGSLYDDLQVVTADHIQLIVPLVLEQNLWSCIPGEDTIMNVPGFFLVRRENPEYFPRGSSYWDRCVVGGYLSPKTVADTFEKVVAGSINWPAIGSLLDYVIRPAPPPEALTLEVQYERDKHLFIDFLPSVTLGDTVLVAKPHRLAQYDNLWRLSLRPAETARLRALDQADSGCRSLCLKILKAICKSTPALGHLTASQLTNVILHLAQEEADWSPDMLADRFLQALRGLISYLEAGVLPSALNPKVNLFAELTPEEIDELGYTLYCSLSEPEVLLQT
The assay is described as above.

Assay [8] addresses MIEF1-V5 (UniProt Q9NQG6). Kind of assay: co-IP; sequential co-IP: 293T co-transfected with MIEF1-V5 and Myc-Mff, cross-linked in vivo with 1% formaldehyde; first anti-V5 beads, elution with V5 peptide, second anti-Myc beads overnight at 4 °C; immunoblot. A general note: In western blotting, separated proteins are transferred to a membrane and probed.
Assay [9] addresses MIEF1-V5 (UniProt Q9NQG6). Kind of assay: co-IP; competition by co-expression: 293T co-transfected with 0.3 µg MIEF1-V5 or MIEF2-V5 and Flag-Mff in different amounts; lysates, anti-V5 agarose, immunoblot.
The target of assay [10] is T2, MIEF2-V5. The description is as above.
Assay [11] addresses MIEF1-V5 (UniProt Q9NQG6). Kind of assay: co-IP; 293T transfected with V5-tagged MIEF1 or MIEF2 (wild type or deletion mutants), alone or with Mff plasmid; also after Mff siRNA or Drp1 siRNA; lysates, anti-V5 beads, immunoblot. The source holds these as a separate data set.
The target of assay [12] is T2, MIEF2-V5. Described as above. The source holds these as a separate data set.
Assay [13] concerns the target T5, MIEF2^Δ151–160. The description is as above. This is another data set of the same source.
The target of assay [14] is T6, MIEF1^Δ160–169. Described as above. This is another data set of the same source.

Read-outs that look alike come from different tables or passages of the source. These are yes or no findings as the source states them, for the method shown. In cells and extracts the contact can be indirect. Some entries that bind do so weakly or less than the wild type. For some of these results: Sequences can lack the tags named with a protein.

With “MIEF1, endogenous (from UniProt Q9NQG6 1-463)”, in assay [1], the binding entry is “binds”.

On to “Drp1 (dynamin-related GTPase), endogenous (from UniProt O00429 1-736)”, for which the binding entry in [2] is “binds”; in assay [3] it was “binds”; in assay [4], “binds”; in assay [5] it was “binds”; in assay [6] it was “binds weakly”; in assay [7], “binds weakly”. In addition, the binding entry in assay [8], in assay [9] and in [10] was “binds” each time.

B1: MIEF2, endogenous (protein, UniProt Q96C03 1-454)
chain: T2 sequence
Consider B1, for which, in assay [1], the binding result is on record as “binds”.

B2: Flag-Mff (protein, UniProt Q9GZY8 1-342)
chain: T1 sequence
For the molecule B2, the binding result in assay [11] and in [12] was “binds” each time.

B3: Myc-Mff (protein, UniProt Q9GZY8 1-342)
chain: T1 sequence
Turning to B3, the binding result in assay [8] is given as “binds”.

B4: wild-type Mff co-expressed with V5-tagged MIEFs (Fig. 6B) (protein, UniProt Q9GZY8 1-342)
chain: T1 sequence
Consider B4, for which the binding result in [13] and in [14] was “binds” throughout.
